In experiment [1] the target is Factor IXaβ (Enzyme Research Laboratories) (UniProt P00740). As to the kind of experiment: ELISA, Factor IXaβ coated on plate, purified antibody added, alkaline phosphatase-labeled secondary antibody, absorbance at 405 nm. In general terms: In an ELISA, binding on a coated surface is turned into a signal by an enzyme label.
The target is the same in experiment [2]. As to the kind of experiment: ELISA on Factor IXa (FIG. 8).

Protein sequences, listed by entry. Tags and fused reporters are not part of them. Lines headed by an entry give the natural chain unless they say otherwise; changes in a name come on top.
UniProt P00740: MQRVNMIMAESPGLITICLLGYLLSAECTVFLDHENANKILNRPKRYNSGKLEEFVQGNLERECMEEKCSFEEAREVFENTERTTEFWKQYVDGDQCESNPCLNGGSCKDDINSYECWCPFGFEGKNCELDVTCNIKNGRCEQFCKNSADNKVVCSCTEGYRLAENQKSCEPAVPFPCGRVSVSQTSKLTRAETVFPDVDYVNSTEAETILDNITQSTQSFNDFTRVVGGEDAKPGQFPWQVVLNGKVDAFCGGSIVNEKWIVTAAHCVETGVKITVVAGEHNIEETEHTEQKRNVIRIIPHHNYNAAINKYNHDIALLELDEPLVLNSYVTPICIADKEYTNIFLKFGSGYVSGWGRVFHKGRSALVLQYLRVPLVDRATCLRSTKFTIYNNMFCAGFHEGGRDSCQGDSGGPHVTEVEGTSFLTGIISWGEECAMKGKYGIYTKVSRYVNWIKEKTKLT

These are yes or no findings as the source states them, for the method shown. Binding can be weak; no strength is given.

Experimental findings from USRE50968 are described below.

B1: humanized A69 antibody homodimer having a modified variable region (CDR) (hA69-N97R/hAL-F123j4) (antibody, V domains shown)
VH: QVQLVQSGAEVKKPGSSVKVSCKASGGTFSDYYMHWVRQAPGQGLEWMGYINPSSGYTKYNRKFRDRVTITADKSTSTAYMELSSLRSEDTAVYYCARGGRGYYLDYWGQGTTVTVSS
VL: DIVMTQSPSSLSASVGDRVTITCKASQNVGTAVAWYQQKPGKAPKLLIYSASYRYSGVPSRFSGSRYGTDFTLTISSLQPEDLATYYCQQYSNYITFGGGTKVEIK
Take B1: the binding result in experiment [1] and in experiment [2] was “binds” each time.

B2: unmodified humanized A69 antibody homodimer (hA69a/hAL-F123j4) (antibody, V domains shown)
VH: QVQLVQSGAEVKKPGSSVKVSCKASGGTFSDYYMHWVRQAPGQGLEWMGYINPSSGYTKYNRKFRDRVTITADKSTSTAYMELSSLRSEDTAVYYCARGGNGYYLDYWGQGTTVTVSS
VL: DIVMTQSPSSLSASVGDRVTITCKASQNVGTAVAWYQQKPGKAPKLLIYSASYRYSGVPSRFSGSRYGTDFTLTISSLQPEDLATYYCQQYSNYITFGGGTKVEIK
As for B2, the binding entry in experiment [1] and in experiment [2] was “binds” throughout.
